Measured values published in patent US12157750B2, “Bright targetable red CA2+ indicators” (HOWARD HUGHES MEDICAL INSTITUTE, priority 2019, dated 2024).
Some results were stated once for a whole list of compounds, not compound by compound.

Assay: Calcium titrations in EGTA buffer system (ΔF/F0, Kd determination)
Type: binding
Conditions: for ΔF/F0: in vitro, Ca2+-dependent change in fluorescence over baseline
Method: All measurements were taken at ambient temperature (23±2° C.). […] Spectroscopy was performed using 1-cm path length quartz cuvettes (Starna). Absorption measurements were recorded on a Cary Model 100 spectrometer (Varian). Fluorescence measurements spectra were recorded on a Cary Eclipse fluorometer (Varian). Images were processed in ImageJ/Fiji. Data was analyzed and graphs were plotted using Prism (GraphPad). Movie renderings were done using Imaris (Bitplane)
Example 15: UV-Vis and Fluorescence Spectroscopy, Kd Determination. UV-Vis and fluorescence spectra were measured in a commercial EGTA buffer system (Invitrogen) following the associated protocol. […] For calcium titrations of the HaloTag ligands in the presence of HaloTag protein, the dye was incubated with 1.5 eq of purified HaloTag protein ([…] solution in 75 mM NaCl, 50 mM Tris-HCl, pH 7.4) for 1 h at room temperature. Calcium titrations were then performed using the commercial EGTA buffer system to which 0.1 mg·mL^−1 CHAPS was added. All the calcium titrations were performed in duplicate.

Q: Which Kd (in vitro Ca2+ binding) does the source give for `O=C(O)CN(CC(=O)O)c1ccccc1OCCOc1cc(NC(=O)C2CN(c3ccc4c(-c5ccccc5C(=O)[O-])c5ccc(=[N+]6CC(C(=O)Nc7ccc(N(CC(=O)O)CC(=O)O)c(OCCOc8ccccc8N(CC(=O)O)CC(=O)O)c7)C6)cc-5oc4c3)C2)ccc1N(CC(=O)O)CC(=O)O` (centres unmarked) [Compound 8, 3″,3″′-bisBAPTA-JF549] here?
A: Its Kd is greater than 700 nM.

Q: With `O=C(O)CN(CC(=O)O)c1ccccc1OCCOc1cc(NC(=O)c2ccc(C(=O)[O-])c(-c3c4ccc(=[N+]5CCC5)cc-4oc4cc(N5CCC5)ccc34)c2)ccc1N(CC(=O)O)CC(=O)O` [Compound 4, 6-BAPTA-JF549] as the compound, how does the ΔF/F0 (listed as compound 4) read?
A: Its ΔF/F0 is “fluorescence increase upon binding Ca^2+”.

Q: For `O=C(O)CN(CC(=O)O)c1ccccc1OCCOc1cc(NC(=O)C2CC/[N+]2=c2/ccc3c(-c4ccccc4C(=O)[O-])c4ccc(N5CCC5)cc4oc-3c2)ccc1N(CC(=O)O)CC(=O)O` (centres unmarked) [Compound 6, 2″-BAPTA-JF549], which ΔF/F0 (listed as compound 6) is on record?
A: Its ΔF/F0 is “fluorescence increase upon binding Ca^2+”.

Q: Which ΔF/F0 (listed as compound 7) does the source give for `O=C(O)CN(CC(=O)O)c1ccccc1OCCOc1cc(NC(=O)C2C[N+](=c3ccc4c(-c5ccccc5C(=O)[O-])c5ccc(N6CCC6)cc5oc-4c3)C2)ccc1N(CC(=O)O)CC(=O)O` (centres unmarked) [Compound 7, 3″-BAPTA-JF549] here?
A: Its ΔF/F0 is “fluorescence increase upon binding Ca^2+”.

Q: Which ΔF/F0 (listed as compound 5) does the source give for `CN(C(=O)c1cccc(C(=O)O)c1-c1c2ccc(=[N+]3CCC3)cc-2oc2cc(N3CCC3)ccc12)c1ccc(N(CC(=O)O)CC(=O)O)c(OCCOc2ccccc2N(CC(=O)O)CC(=O)O)c1` [Compound 5, 7-MeBAPTA-JF549] here?
A: The ΔF/F0 was “fluorescence increase upon binding Ca^2+”.
